Experimental data reported in publication PMC8155215, “The splicing factor XAB2 interacts with ERCC1-XPF and XPG for R-loop processing”.
These are yes or no findings as the source states them, for the method shown. In cells and extracts the contact can be indirect. Here binding means that the protein was enriched with, or labelled near, the bait; the list need not be complete. Tags and fused reporters may be left off the sequences shown.

T1: biotin-tagged XAB2 (XPA-binding protein 2) from aviXab2+/+;birA knock-in mice (mouse) (UniProt Q9DCD2)
T1 sequence (chain, biotin on the 15aa Avitag (added in vivo by the BirA ligase)): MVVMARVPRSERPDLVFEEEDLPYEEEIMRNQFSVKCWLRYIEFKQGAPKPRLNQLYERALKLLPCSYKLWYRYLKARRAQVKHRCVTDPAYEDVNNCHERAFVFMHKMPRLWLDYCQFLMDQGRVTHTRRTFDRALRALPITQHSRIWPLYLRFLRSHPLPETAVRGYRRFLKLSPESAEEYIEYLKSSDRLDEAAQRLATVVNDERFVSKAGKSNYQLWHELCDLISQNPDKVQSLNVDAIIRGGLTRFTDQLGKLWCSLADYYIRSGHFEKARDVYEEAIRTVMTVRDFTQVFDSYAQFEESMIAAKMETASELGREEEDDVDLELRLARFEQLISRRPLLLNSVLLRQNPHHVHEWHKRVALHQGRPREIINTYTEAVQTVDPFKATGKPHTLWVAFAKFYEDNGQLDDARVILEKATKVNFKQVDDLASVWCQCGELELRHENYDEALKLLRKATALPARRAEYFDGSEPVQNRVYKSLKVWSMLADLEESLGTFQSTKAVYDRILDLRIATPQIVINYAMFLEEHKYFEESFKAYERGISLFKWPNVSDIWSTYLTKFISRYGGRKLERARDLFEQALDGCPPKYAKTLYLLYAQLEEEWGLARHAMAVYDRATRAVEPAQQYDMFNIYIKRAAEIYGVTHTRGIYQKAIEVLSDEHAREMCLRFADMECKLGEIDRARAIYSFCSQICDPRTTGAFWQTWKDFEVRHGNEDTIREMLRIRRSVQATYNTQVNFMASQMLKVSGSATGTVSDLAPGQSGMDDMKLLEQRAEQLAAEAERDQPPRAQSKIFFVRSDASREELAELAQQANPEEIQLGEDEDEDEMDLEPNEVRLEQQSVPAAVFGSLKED

B1: SMC1a (protein, UniProt Q9CU62 1-1233)
chain: MGFLKLIEIENFKSYKGRQIIGPFQRFTAIIGPNGSGKSNLMDAISFVLGEKTSNLRVKTLRDLIHGAPVGKPAANRAFVSMVYSEEGAEDRTFARVIVGGSSEYKINNKVVQLHEYSEELEKLGILIKARNFLVFQGAVESIAMKNPKERTALFEEISRSGELAQEYDKRKKEMVKAEEDTQFNYHRKKNIAAERKEAKQEKEEADRYQRLKDEVVRAQVQLQLFKLYHNEVEIEKLNKELASKNKEIEKDKKRMDKVEDELKEKKKELGKMMREQQQIEKEIKEKDSELNQKRPQYIKAKENTSHKIKKLEAAKKSLQNAQKHYKKRKGDMDELEKEMLSVEKARQEFEERMEEESQSQGRDLTLEENQVKKYHRLKEEASKRAATLAQELEKFNRDQKADQDRLDLEERKKVETEAKIKQKLREIEENQKRIEKLEEYITTSKQSLEEQKKLEGELTEEVEMAKRRIDEINKELNQVMEQLGDARIDRQESSRQQRKAEIMESIKRLYPGSVYGRLIDLCQPTQKKYQIAVTKVLGKNMDAIIVDSEKTGRDCIQYIKEQRGEPETFLPLDYLEVKPTDEKLRELKGAKLVIDVIRYEPPHIKKALQYACGNALVCDNVEDARRIAFGGHQRHKTVALDGTLFQKSGVISGGASDLKAKARRWDEKAVDKLKEKKERLTEELKEQMKAKRKEAELRQVQSQAHGLQMRLKYSQSDLEQTKTRHLALNLQEKSKLESELANFGPRINDIKRIIQSREREMKDLKEKMNQVEDEVFEEFCREIGVRNIREFEEEKVKRQNEIAKKRLEFENQKTRLGIQLDFEKNQLKEDQDKVHMWEQTVKKDENEIEKLKKEEQRHMKIIDETMAQLQDLKNQHLAKKSEVNDKNHEMEEIRKKLGGANKEMTHLQKEVTAIETKLEQKRSDRHNLLQACKMQDIKLPLSKGTMDDISQEEGSSQGEESVSGSQRTSSIYAREALIEIDYGDLCEDLKDAQAEEEIKQEMNTLQQKLNEQQSVLQRIAAPNMKAMEKLESVRDKFQETSDEFEAARKRAKKAKQAFEQIKKERFDRFNACFESVATNIDEIYKALSRNSSAQAFLGPENPEEPYLDGINYNCVAPGKRFRPMDNLSGGEKTVAALALLFAIHSYKPAPFFVLDEIDAALDNTNIGKVANYIKEQSTCNFQAIVISLKEEFYTKAESLIGVYPEQGDCVISKVLTFDLTKYPDANPNPNEQ
B2: STAG2 (protein, UniProt O35638 1-1231)
chain: MIAAPEIPTDFNLLQESETHFSSDTDFEDIEGKNQKQGKGKTCKKGKKGPAEKGKSGNGGGKPPSGSNRMNGHHQQNGVENMMLFEVVKMGKSAMQSVVDDWIESYKHDRDIALLDLINFFIQCSGCKGVVTAEMFRHMQNSEIIRKMTEEFDEDSGDYPLTMAGPQWKKFKSSFCEFIGVLVRQCQYSIIYDEYMMDTVISLLTGLSDSQVRAFRHTSTLAAMKLMTALVNVALNLSINMDNTQRQYEAERNKMIGKRANERLELLLQKRKELQENQDEIENMMNAIFKGVFVHRYRDAIAEIRAICIEEIGIWMKMYSDAFLNDSYLKYVGWTMHDKQGEVRLKCLTALQGLYYNKELNSKLELFTSRFKDRIVSMTLDKEYDVAVQAIKLLTLVLQSSEEVLTAEDCENVYHLVYSAHRPVAVAAGEFLYKKLFSRRDPEEDGLMKRRGRQGPNANLVKTLVFFFLESELHEHAAYLVDSMWDCATELLKDWECMNSLLLEEPLSGEEALTDRQESALIEIMLCTIRQAAECHPPVGRGTGKRVLTAKEKKTQLDDRTRITELFAVALPQLLAKYSVDAEKVTNLLQLPQYFDLEIYTTGRLEKHLDALLRQIRNIVEKHTDTDVLEACSKTYHALCNEEFTIFNRVDISRSQLIDELADKFNRLLEDFLQEGEEPDEDDAYQVLSTLKRITAFHNAHDLSKWDLFACNYKLLKTGIENGDMPEQIVIHALQCAHYVILWQLAKITESTSTKEDLLRLKKQMRVFCQICQHYLTNVNTTVKEQAFTILCDILMIFSHQIMSGGRDMLEPLVYTPDSSLQSELLSFILDHVFIEQDDDSNSADGQQEDEASKIEALHKRRNLLAAFCKLIVYTVVEMNTAADIFKQYMKYYNDYGDIIKETMSKTRQIDKIQCAKTLILSLQQLFNEMIQENGYNFDRSSSTFSGIKELARRFALTFGLDQLKTREAIAMLHKDGIEFAFKEPNPQGESHPPLNLAFLDILSEFSSKLLRQDKRTVYVYLEKFMTFQMSLRREDVWLPLMSYRNSLLAGGDDDTMSVISGMSSRGSTVRSKKSKPSTGKRKVVEGMQLALPEESSSSDSMWLSREQTLHTPVMMQTPQLTSTIMREPKRLRPEDSFMSVYPMQAEHHQTPLDYNRRGTSLMEDDEEPIVEDVMMSSEGRIEDLNEGMDFDTMDIDLPPSKNRRERTELKPDFFDPASIMDESVLGVSMF
B3: STAG1 (protein, UniProt Q9D3E6 1-1258)
chain: MITSELPVLQDSTNETTAHSDAGSELEETEVKGKRKRGRPGRPPSTNKKPRKSPGEKSRIEAGIRGAGRGRANGHPQQNGDGDPVTLFEVVKLGKSAMQSVVDDWIELYKQDRDIALLDLINFFIQCSGCRGTVRIEMFRNMQNAEIIRKMTEEFDEDSGDYPLTMPGPQWKKFRSNFCEFIGVLIRQCQYSIIYDEYMMDTVISLLTGLSDSQVRAFRHTSTLAAMKLMTALVNVALNLSIHQDNTQRQYEAERNKMIGKRANERLELLLQKRKELQENQDEIENMMNSIFKGIFVHRYRDAIAEIRAICIEEIGVWMKMYSDAFLNDSYLKYVGWTLHDRQGEVRLKCLKALQSLYTNRELFPKLELFTNRFKDRIVSMTLDKEYDVAVEAIRLVTLILHGSEEALSNEDCENVYHLVYSAHRPVAVAAGEFLHKKLFSRHDPQAEEALAKRRGRNSPNGNLIRMLVLFFLESELHEHAAYLVDSLWESSQELLKDWECMTELLLEEPVQGEEAMSDRQESALIELMVCTIRQAAEAHPPVGRGTGKRVLTAKERKTQIDDRNKLTEHFIITLPMLLSKYSADAEKVANLLQIPQYFDLEIYSTGRMEKHLDALLKQIKFVVEKHVESDVLEACSKTYSILCSEEYTIQNRVDIARSQLIDEFVDRFNHSVEDLLQEGEEADDDDIYNVLSTLKRLTSFHNAHDLTKWDLFGNCYRLLKTGIEHGAMPEQIVVQALQCSHYSILWQLVKITDGSPSKEDLLVLRKTVKSFLAVCQQCLSNVNTPVKEQAFMLLCDLLMIFSHQLMTGGREGLQPLVFNPDTGLQSELLSFVMDHVFIDQDEENQSMEGDEEDEANKIEALHKRRNLLAAFSKLIIYDIVDMHAAADIFKHYMKYYNDYGDIIKETLSKTRQIDKIQCAKTLILSLQQLFNELVQEQGPNLDRTSAHVSGIKELARRFALTFGLDQIKTREAVATLHKDGIEFAFKYQNQKGQEYPPPNLAFLEVLSEFSSKLLRQDKKTVHSYLEKFLTEQMMERREDVWLPLISYRNSLVTGGEDDRMSVNSGSSSSKTSSVRSKKGRPPLHRKRVEDESLDNTWLNRTDTMIQTPGPLPTPQLTSTVLRENSRPMGEQIQEPESEHGSEPDFLHNPQMQISWLGQPKLEDLNRKDRTGMNYMKVRAGVRHAVRGLMEEDAEPIFEDVMMSSRSQLEDMNEEFEDTMVIDLPPSRNRRERAELRPDFFDSAAIIEDDSGFGMPMF
B4: GNL3 (protein, UniProt Q8CI11 1-538)
chain: MKRPKLKKASKRMTCHKRYKIQKKVREHHRKLRKEAKKRGHKKPRKDPGVPNSAPFKEALLREAELRKQQLEELKQQQKLDRQKEQERKRKLEVSPGDEQSNVETREESDEPKRKKAKAGKQNPKKLHCQELKKVIEASDIVLEVLDARDPLGCRCPQIEEAVIQSGSKKLILVLNKSDLVPKENLENWLNYLNKELPTVVFKASTNLKNRKTFKIKKKKVVPFQSKICCGKEALWKLLGDFQQSCGKDIQVGVIGFPNVGKSSVINSLKQEWICNVGISMGLTRSMQIVPLDKQITIIDSPCLIISPCNSPTALALRSPASIEELRPLEAASAILSQADNEQVVLKYTVPEYKDSLHFFTKLAQRRGLHQKGGSPNVESAAKLVWSEWTGASLGYYCHPPASWNHSLHFNENIAAVMKKGFNLEELEKNNAHSIQVLKGPHLTNRILFRSSGLTNGILDEKDIVEESPRQTEDKQDADDQENGSGERNAEISDVAPVEETRELSPEQSTAGKPSDGSSALDRASQEDETYDFTTDYI

The binders below were run against T1, biotin-tagged XAB2 (XPA-binding protein 2) from aviXab2+/+;birA knock-in mice (mouse) (assay: affinity purification with mass spectrometry; bXAB2 captured on M-280 streptavidin beads from high-salt nuclear extracts of P15 bXAB2 livers treated with benzonase and RNase A; BirA livers as control; three biological replicates, nLC-MS/MS).

binding, binds:
B1, B2, B3, B4
